Source: article PMC3217271
No constants are given. Whether binding was seen depends on the method and setting. In cells and extracts the contact can be indirect. Some binding calls cover weakened binding; strength is not graded here.

Amino acid sequences for entries named in this document (tags omitted).
UniProt Q99816: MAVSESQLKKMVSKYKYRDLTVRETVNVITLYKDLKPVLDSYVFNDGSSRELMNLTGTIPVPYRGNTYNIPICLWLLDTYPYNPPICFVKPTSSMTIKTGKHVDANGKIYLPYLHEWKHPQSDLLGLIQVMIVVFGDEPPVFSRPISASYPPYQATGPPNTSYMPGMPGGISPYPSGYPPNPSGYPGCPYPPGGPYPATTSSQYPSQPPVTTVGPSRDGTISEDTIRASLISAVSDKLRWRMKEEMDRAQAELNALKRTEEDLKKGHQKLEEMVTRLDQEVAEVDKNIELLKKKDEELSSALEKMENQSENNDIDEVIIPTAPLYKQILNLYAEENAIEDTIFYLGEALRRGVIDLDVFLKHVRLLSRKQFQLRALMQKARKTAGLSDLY
UniProt Q05128: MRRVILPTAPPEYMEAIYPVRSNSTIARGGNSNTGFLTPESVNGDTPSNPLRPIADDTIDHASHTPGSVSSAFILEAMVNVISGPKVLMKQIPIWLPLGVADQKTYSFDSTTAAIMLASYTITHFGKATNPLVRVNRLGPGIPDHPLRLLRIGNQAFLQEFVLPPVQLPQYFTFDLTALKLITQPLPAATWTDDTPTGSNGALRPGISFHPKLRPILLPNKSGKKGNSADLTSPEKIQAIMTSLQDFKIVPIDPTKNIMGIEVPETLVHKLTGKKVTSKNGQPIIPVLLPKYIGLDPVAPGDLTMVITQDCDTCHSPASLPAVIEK

Molecular target: NYFP-Tsg101 (human) (UniProt Q99816)
Experiment: split reporter

Substance: CYFP-eVP40-WT (from UniProt Q05128 1-326)
- binding: binds
